The assay relates to eosinophils. Description: Eosinophil shape change assay with human plasma. It counts as cell-based. Conditions: human plasma (50%), PGD2 100 nM activation, antagonistic activity. The text has this: Eosinophil Shape Change Assay with Human Plasma
After obtaining informed consent, blood samples were drawn by venipuncture according to the protocol approved by the ethics committee of Basel, Switzerland. Polymorphonuclear leukocytes (containing eosinophils, basophils and neutrophils) were isolated using the Polymorphprep™ method (Axis-Shield). […] The polymorphonuclear cell fraction was harvested and depleted for erythrocytes by hypotonic saline lysis. […]
Immediately after fixation with paraformaldehyde, the samples were analyzed by FACSCanto flow cytometer (BD Biosciences) and target cells were identified by their forward-scatter (FSC) and side-scatter (SSC) characteristics. […] Shape change responses, indicative of eosinophil activation, were quantified as the percent of cells with an increased forward-scatter.

The structures appear in SMILES notation.

Our source for the IC50 values is patent publication US9255090B2, “Heterocyclyl derivatives and their use as prostaglandin D2 receptor modulators” (Actelion Pharmaceuticals Ltd., priority 2012, dated 2016).

Take `O=C(O)Cc1ccc(OCC2CC2)c(-c2ccc(F)c3c2CN(C(=O)OCc2ccccc2)CC3)c1` [Example 196, 8-(5-Carboxymethyl-2-cyclopropylmethoxy-phenyl)-5-fluoro-3,4-dihydro-1H-isoquinoline-2-carboxylic acid benzyl ester]: the IC50 was determined as 44 nM.

In general, IC50 refers to the concentration that inhibits the measured activity by half. Low readings indicate greater potency in that assay, high ones weaker potency in that assay.
